Measurements taken from patent publication US5811263A, “DNA encoding human endothelin-3, and use thereof” (Takeda Chemical Industries, Ltd., priority 1988, dated 1998).
Part of at least one peptide drawing is inferred or uncertain, most often the ends. Positions of bridges follow the written chain, without caps; N, C: chain ends. Residues, ends and D or L forms follow the SMILES beside them.

System: porcine coronary artery
Assay: Assay of vascular smooth muscle constrictor activity (isometric tension of porcine right coronary artery spiral specimens)
Type: cell-based

In the case of CC[C@H](C)[C@H](NC(=O)[C@H](CC(=O)O)NC(=O)[C@H](CC(C)C)NC(=O)[C@H](Cc1c[nH]cn1)NC(=O)[C@@H]1CSSC[C@H](N)C(=O)N[C@@H](CO)C(=O)N[C@H]2CSSC[C@H](NC(=O)[C@H](CCC(=O)O)NC(=O)[C@H](CCCCN)NC(=O)[C@H](CC(=O)O)NC(=O)[C@H](CC(C)C)NC(=O)[C@H](Cc3c[nH]c4ccccc34)NC(=O)[C@H](CO)NC(=O)[C@H](CO)NC2=O)C(=O)N[C@@H](C(C)C)C(=O)N[C@@H](Cc2ccc(O)cc2)C(=O)N[C@@H](Cc2ccccc2)C(=O)N1)C(=O)N[C@H](C(=O)N[C@@H](Cc1c[nH]c2ccccc12)C(=O)O)[C@@H](C)CC [endothelin-2] (H-CSCSSWLDKECVYFCHLDIIW-OH; disulfide 1-15, 3-11), the “ED50 (median effective dose)” value (assay (1) using porcine coronary artery, intima-denuded spiral specimens, Krebs-Ringer solution, 37° C.) is reported as 0.8 to 1 nM and the “vasoconstrictor activity relative to the previously isolated endothelin peptides” value (comparison with previously isolated endothelin peptides, test not specified) is reported as “up to twice as high”.
